The campaign covered roughly 52,000 sequences. About 210 (0.4%) were called active.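 Rule for the calls: active = gene whose silencing raises cell survival under the drug, median off-target-corrected z-score across its silencing RNAs 2 or more; inactive = the rest.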 The list shows a part of the results.
assay: Resistance to Poly (ADP-Ribose) Polymerase inhibitor: Gene Identification via Genome-wide siRNA Screen; settings: mouse BRCA2 R2336H ES cells, olaparib, CellTiter-Glo viability; stronger effect = higher value
In short: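 Mouse BRCA2 R2336H ES cells were reverse-transfected with siRNA (20 nM final), treated at 48 h with 500 nM olaparib, and read by CellTiter-Glo after 72 h. Scores: MAD-based z per siRNA, median per gene, seed off-target correction.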

| Sequence | z-score |
| --- | --- |
| GGGAUCAUGAAACAUGUCGTT against 1700020D05Rik | inactive: 2.03 |
| GGAAGAGCAUGAGUCGUUUTT against Scarb2 | inactive: -0.209 |
| GCAAAUACGGCGGAUGAACTT against Sesn3 | inactive: -0.331 |
| GGUAUUUAAUGGAAGCCUGTT against C330005M16Rik | inactive: -0.698 |
| GGCUGUUCUUCAAGAAUAUTT against Trim32 | inactive: -0.661 |
| GCUGGAAAAGUGCUGUGGGTT against Sult1c1 | inactive: -1.17 |
| CGGGACCUGUGGAAUUCUCTT against Scap | inactive: 0.337 |
| GCCUGAUCCUAAAUUUCCUTT against Svs1 | inactive: 0.981 |
| GCACUAAAGGGCUUUUCAUTT against Serping1 | inactive: -0.977 |
| CUAUCACAGCCCUGUACUUTT against Olfr694 | inactive: 0.236 |
| GGUAGACCUAAAUAAUAUGTT against LOC380997 | inactive: 1.02 |
| GGGAAGAUGUGGAUGUCAUTT against Oprk1 | inactive: -0.242 |
| GGAGAUCUAGUGAUCUUUUTT against Pank1 | inactive: -0.187 |
| GGACCUCAGUCACUUCCAATT against Etv4 | inactive: -0.421 |
| GGCCCUCAAUGACAUAAGCTT against Srm | inactive: -0.0642 |
| GGACAAACUAGCAACCACUTT against Mtap7 | inactive: -1.98 |
| GGAGCUAUACUGCUUUUCCTT against Mtmr7 | inactive: 0.468 |
| CCCUUAUGAUGUAUUCCUGTT against Ddr2 | inactive: 1.61 |
| GGAUUCAGCAGCUUCAGAATT against 2810428I15Rik | inactive: 1.66 |
| GCGGGAGCGAGAAAAACUGTT against Dhx16 | inactive: -0.907 |
| GCAUGGAACAAGGUUGCUCTT against Pa2g4 | inactive: 0.803 |
| CCCUUACAACUCAAGUAUCTT against 9430095K15Rik | inactive: 0.674 |
| GGCUAUGUUUAUAUCAUCGTT against Klhl10 | inactive: 0.847 |
| GGCUUGAUAUUUGUGGUUGTT against Arf3 | inactive: -0.0612 |
| GGAAGUGUGAUGAAUGAUATT against Cbara1 | inactive: 1.32 |
| GGCAAGGAAGUCUAAAGAATT against Fbxo8 | inactive: -1.12 |
| GCGGCAAGAUUAAUAAGUCTT against Mpzl1 | inactive: -1.21 |

Some of the entries so far, with tabs.
Sequence	z-score
GCACUAAAGGGCUUUUCAUTT against Serping1	inactive: -0.977
GGAGAUCUAGUGAUCUUUUTT against Pank1	inactive: -0.187
GGCCCUCAAUGACAUAAGCTT against Srm	inactive: -0.0642
GGAUUCAGCAGCUUCAGAATT against 2810428I15Rik	inactive: 1.66
GCGGGAGCGAGAAAAACUGTT against Dhx16	inactive: -0.907

(cont.)

| Sequence | z-score |
| --- | --- |
| GGUAUCUGACCUGAGCAUGTT against Msln | inactive: -0.285 |
| GGAUCCUCGGGAGUACAUGTT against BC043118 | inactive: 0.82 |
| CCAAGUUUCCCGGUGAUAATT against Pla2g2a | inactive: -1.6 |
| GGUGUGUGUUCCACUAAAGTT against Ptpn18 | inactive: 1.12 |
| GGAAAUUUUCAAGCUCAAGTT against Gsdmdc1 | inactive: -2.78 |
| CCUGAUAGUAUUUUACGAGTT against 4933402B14Rik | inactive: 0.826 |
| CGCAUUACAUUAGCCAAAATT against AI428795 | inactive: -0.00325 |
| GCCGGGAAGACAAUAACUGTT against Il10 | inactive: -1.09 |
| GGUCUGUGAGGAACAAAAGTT against Ccnd2 | inactive: 0.199 |
| GGUUAUUAUGACCAAGAAATT against Sf3b1 | inactive: -3.67 |
| GGAGCAAAGGGUAGGGAAATT against 1700052K11Rik | inactive: -1.29 |
| GGUCAGAGAAAUGAUGUCUTT against Osbpl11 | inactive: -1.86 |
| GGCAUUAAAUGAUUACAAGTT against Mtf2 | inactive: 1.11 |
| GGUUCAGCCUGAAAUAGAGTT against Syt5 | inactive: -0.216 |
| GGCACUGAGAUCUGUAAUUTT against D11Ertd498e | inactive: -0.747 |
| CCGAGGAUUUGAAACAGUATT against Pir | inactive: -2.2 |
| GGACUUCUCUGUGAAGAUGTT against Ctsf | inactive: -1.19 |
| GGCACCUAACAAAUUAGUCTT against 4921517N04Rik | inactive: 0.675 |
| GGAGGACUUCCAGAUCCAATT against Robo4 | inactive: 0.15 |
| CCCUGACUUGUCCUUACAATT against Trem3 | inactive: 0.417 |
| GCCAGUGCACUCCUCUUUUTT against Mmrp19 | inactive: 0.352 |
| CCAAUAAGGAAAAAUCUGGTT against Cenpc1 | inactive: 0.87 |
| GGUUCACGGUUUAUAAAGUTT against Sgk3 | inactive: 0.847 |
| GGAAUUUAUUGAGGUCUUUTT against Plcl2 | inactive: 0.0628 |
| GGAGAUGAACCAUUAUGUCTT against Mycbp | inactive: -0.0097 |
| CGGCCUUCAUCUGCCUUUUTT against Olfr1222 | inactive: -2.1 |
| GACCUUUCUCUUCUUGGCUTT against Olfr434 | inactive: 0.528 |

| Sequence | z-score |
| --- | --- |
| GGCCAAGUUCCAAACAAGATT against Zfp109 | inactive: -0.049 |
| GGGCUUCUUCAAGAGAACGTT against Nr4a3 | inactive: 1.73 |
| GGACUAUUAGCUCGAACUUTT against Dlx2 | inactive: 0.0363 |
| GGAUAUUCAGGACUUUGAUTT against Slc2a1 | inactive: -0.484 |
| GCAAUCUUGAGUUUGCACATT against Haghl | inactive: 0.745 |
| GGAAAGAAAGGGAACAAAATT against 2810027O19Rik | inactive: -0.8 |
| GCACUCAAGGUUUUACUGUTT against Satb1 | inactive: 0.478 |
| CGAUGGAAGUUUAAACCUCTT against Htr1a | inactive: 0.54 |
| GCGAAGAAGAAGAUAGUAATT against Zfp265 | inactive: -0.0605 |
| GGAAGCAAAUGGUUUGUAATT against Sfrs2 | inactive: -2.38 |
| GGACUAUCAGCAUUUCGUUTT against 1500041J02Rik | inactive: 0.942 |
| GGAAUUGACAUAUUCAGUCTT against 9130221H12Rik | inactive: 0.3 |
| GGCGUGUCAAAGAAAUUUUTT against V1rd7 | inactive: 1.41 |
| GGACUUUACAGACACUUUUTT against Aof1 | inactive: -0.77 |
| GGAAGAUCCUCGAUAGUCATT against Rgs7 | inactive: 1.13 |
| GGACACACAGUAUUGUUUGTT against 2310010M24Rik | inactive: -0.174 |
| GUCUUUCUGUUACCUUGGCTT against LOC384806 | inactive: -0.4 |
| GGAACUAAAGCGAUAUUUATT against Thrap6 | inactive: -0.755 |
| GCAUGCUUUCUGAAUACAATT against Cdk8 | inactive: 0.125 |
| GGUUUAGGAUUUUUUGUUGTT against Ccr5 | inactive: -0.207 |
| GGAUAAAAUUGAGUCUAUGTT against Was | inactive: -1.27 |
| GGCUUCUCAUUGUGAAUAUTT against D6Mm5e | inactive: 1.46 |
| GGGUGAGUCACGAAAGUCATT against Epor | inactive: -0.644 |
| GCAUGCAUCUUCCUUCGACTT against Cabp2 | inactive: -1.07 |
| GGUUAAUCUGAGAAUUCUATT against Kcnk1 | inactive: 0.739 |
| GGUGAUAAAGCCAAGCAAATT against Vps4b | inactive: 1.99 |
| CCAACUUUAUCUAAGGUGCTT against Bhmt | inactive: 0.682 |

Look-ups from the list:
z-score with GCCAGUGCACUCCUCUUUUTT against Mmrp19 reads inactive: 0.352
z-score with GGACCUCAGUCACUUCCAATT against Etv4 reads inactive: -0.421

(cont.)

| Sequence | z-score |
| --- | --- |
| GGAGUCCUUCUUUCACUGGTT against Pep4 | inactive: -0.12 |
| GCCUUUCCACCGAUGAAAUTT against Dpyd | inactive: -1.67 |
| GCUACAAGCGAUAUAUUCCTT against Jak1 | active: 2.92 |
| GCUCUUAAUCCUAUCUAUCTT against Rgs9bp | inactive: 0.527 |
| CCAGUCUUAUCUGUAGAAGTT against Obox1 | inactive: 0.436 |
| CGACUAUUUGGGUGGCAAGTT against Scin | inactive: 0.741 |
| GGUUACGAAAAGCUGCCUUTT against 2010321M09Rik | inactive: -2.05 |
| GCUCAAUUGUUCUUCUUUUTT against Olfr806 | inactive: 1.22 |
| GGCAUUCAGAAACAUGGUUTT against Esx1 | inactive: -0.721 |
| GGACAUGGAAAACAAAAUCTT against Capzb | inactive: -0.452 |
| GGCUGAUCCUAAGAAAGAATT against BC017158 | inactive: -2.04 |
| GGAAGGACAGACAGACAAGTT against Pxt1 | inactive: -1.51 |
| GGAAAAAUAGGUCGAAUGATT against Arntl | inactive: -0.785 |
| CCGUAUCAUCCAGUUUAACTT against Gnpda1 | inactive: 0.449 |
| GCAGUGUUGUCAAAACUUGTT against 2310020P08Rik | inactive: 1.21 |
| GCUGAGACUUCGAGCCUAUTT against Polr2c | inactive: -2.53 |
| CCACAUCCCACGGGAUCUUTT against BC050210 | inactive: 0.917 |
| GGAAUGAAAUCUCUGCAUGTT against Za20d2 | inactive: -0.0858 |
| GGAUGAACUGACUAAAAUATT against Fmn | inactive: 0.465 |
| GGAAACUUGAUUAUUUAGGTT against Vrk2 | inactive: 0.0722 |
| GGCUGCUGUUGUGCCUAAATT against Zdhhc12 | inactive: -1.78 |
| GGGCUCACACAAAUAAGAGTT against 2600017H02Rik | inactive: -0.734 |
| GGACUUCAACUUGAUGGAGTT against Add2 | inactive: -0.0368 |
| GAGUGGAUGGCUCAAAGGATT against 6430544H17Rik | inactive: 0.555 |

From PubChem BioAssay AID1347423 (Functional Genomics Laboratory (NCATS/FGL), 2020)
